According to the supplement of paper PMC12067093, “Discovery and optimisation of a covalent ligand for TRIM25 and its application to targeted protein ubiquitination” (Chemical Science, 2025):
This is one part of the list.

Chains of the proteins cited; added tags and fusions are not shown. Lines headed by an entry give the natural chain unless they say otherwise; changes in a name come on top.
UniProt Q5T200: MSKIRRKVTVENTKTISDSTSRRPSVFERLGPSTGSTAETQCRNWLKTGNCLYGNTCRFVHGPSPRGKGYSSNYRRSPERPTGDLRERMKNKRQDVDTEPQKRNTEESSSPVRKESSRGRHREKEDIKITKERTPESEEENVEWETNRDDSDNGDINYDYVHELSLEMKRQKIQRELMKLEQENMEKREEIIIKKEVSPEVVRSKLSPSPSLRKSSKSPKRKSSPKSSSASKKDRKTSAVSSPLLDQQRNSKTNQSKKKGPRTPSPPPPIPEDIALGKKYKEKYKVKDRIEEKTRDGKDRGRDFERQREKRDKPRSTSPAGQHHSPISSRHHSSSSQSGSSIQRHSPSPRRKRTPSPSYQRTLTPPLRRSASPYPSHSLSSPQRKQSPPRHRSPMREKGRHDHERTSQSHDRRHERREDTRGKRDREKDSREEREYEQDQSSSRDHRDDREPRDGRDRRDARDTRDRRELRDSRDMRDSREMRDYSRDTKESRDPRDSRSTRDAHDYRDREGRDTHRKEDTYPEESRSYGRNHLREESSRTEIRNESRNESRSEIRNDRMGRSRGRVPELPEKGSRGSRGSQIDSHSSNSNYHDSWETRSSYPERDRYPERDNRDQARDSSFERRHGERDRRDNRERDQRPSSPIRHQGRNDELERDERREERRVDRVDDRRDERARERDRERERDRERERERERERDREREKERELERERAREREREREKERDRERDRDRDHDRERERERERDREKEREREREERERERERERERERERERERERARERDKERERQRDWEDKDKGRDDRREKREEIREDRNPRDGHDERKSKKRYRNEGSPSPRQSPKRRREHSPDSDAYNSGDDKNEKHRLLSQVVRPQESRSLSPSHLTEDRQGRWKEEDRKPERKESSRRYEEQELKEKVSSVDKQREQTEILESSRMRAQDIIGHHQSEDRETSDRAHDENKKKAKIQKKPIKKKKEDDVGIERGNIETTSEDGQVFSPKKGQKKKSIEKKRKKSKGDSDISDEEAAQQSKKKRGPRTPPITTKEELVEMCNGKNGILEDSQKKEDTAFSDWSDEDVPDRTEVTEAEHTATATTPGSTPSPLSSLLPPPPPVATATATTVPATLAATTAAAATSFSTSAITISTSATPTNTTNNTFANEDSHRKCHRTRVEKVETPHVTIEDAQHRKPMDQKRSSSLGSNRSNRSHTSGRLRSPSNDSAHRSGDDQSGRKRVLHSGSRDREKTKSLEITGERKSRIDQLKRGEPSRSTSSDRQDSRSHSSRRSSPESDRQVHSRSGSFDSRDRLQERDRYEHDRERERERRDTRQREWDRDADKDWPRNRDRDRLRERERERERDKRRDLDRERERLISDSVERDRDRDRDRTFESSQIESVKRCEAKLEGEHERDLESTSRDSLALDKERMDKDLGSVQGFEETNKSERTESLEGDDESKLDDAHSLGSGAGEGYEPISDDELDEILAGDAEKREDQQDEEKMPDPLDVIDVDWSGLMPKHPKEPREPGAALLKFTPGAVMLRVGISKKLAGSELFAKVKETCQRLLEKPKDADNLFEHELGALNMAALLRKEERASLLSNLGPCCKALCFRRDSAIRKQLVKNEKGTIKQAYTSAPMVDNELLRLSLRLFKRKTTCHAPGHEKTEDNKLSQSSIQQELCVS
UniProt Q9H0D6: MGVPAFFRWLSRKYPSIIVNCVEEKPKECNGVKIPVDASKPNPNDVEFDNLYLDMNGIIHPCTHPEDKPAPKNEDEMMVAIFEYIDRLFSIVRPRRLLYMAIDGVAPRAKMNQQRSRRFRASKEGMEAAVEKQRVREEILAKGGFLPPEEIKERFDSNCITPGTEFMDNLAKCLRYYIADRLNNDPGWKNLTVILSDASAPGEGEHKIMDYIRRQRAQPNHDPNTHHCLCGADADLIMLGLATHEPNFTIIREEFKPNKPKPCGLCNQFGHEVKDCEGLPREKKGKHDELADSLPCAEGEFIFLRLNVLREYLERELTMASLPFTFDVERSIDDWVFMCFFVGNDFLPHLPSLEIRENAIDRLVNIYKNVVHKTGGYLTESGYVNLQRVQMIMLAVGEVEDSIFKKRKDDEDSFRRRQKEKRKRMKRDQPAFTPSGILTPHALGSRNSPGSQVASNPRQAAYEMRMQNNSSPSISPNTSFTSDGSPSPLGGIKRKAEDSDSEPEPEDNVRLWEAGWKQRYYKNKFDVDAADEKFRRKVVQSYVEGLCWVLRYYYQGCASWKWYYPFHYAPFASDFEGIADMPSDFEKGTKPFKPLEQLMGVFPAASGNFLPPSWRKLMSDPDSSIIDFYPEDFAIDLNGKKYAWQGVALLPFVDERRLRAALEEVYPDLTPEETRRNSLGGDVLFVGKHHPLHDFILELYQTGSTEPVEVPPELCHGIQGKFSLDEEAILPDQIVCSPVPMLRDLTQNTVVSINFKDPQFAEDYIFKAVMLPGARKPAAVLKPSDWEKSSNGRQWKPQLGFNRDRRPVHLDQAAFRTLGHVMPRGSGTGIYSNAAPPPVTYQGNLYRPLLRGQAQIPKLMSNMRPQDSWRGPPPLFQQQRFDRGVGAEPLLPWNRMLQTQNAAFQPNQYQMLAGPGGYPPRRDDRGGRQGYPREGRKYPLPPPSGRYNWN
UniProt P62258: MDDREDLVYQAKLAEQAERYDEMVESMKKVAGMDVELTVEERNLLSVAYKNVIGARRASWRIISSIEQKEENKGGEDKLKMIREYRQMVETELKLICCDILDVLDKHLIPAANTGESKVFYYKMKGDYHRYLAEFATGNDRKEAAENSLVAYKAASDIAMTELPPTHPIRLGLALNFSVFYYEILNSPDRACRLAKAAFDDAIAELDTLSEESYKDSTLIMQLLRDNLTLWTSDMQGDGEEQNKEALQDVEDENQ
UniProt O75152: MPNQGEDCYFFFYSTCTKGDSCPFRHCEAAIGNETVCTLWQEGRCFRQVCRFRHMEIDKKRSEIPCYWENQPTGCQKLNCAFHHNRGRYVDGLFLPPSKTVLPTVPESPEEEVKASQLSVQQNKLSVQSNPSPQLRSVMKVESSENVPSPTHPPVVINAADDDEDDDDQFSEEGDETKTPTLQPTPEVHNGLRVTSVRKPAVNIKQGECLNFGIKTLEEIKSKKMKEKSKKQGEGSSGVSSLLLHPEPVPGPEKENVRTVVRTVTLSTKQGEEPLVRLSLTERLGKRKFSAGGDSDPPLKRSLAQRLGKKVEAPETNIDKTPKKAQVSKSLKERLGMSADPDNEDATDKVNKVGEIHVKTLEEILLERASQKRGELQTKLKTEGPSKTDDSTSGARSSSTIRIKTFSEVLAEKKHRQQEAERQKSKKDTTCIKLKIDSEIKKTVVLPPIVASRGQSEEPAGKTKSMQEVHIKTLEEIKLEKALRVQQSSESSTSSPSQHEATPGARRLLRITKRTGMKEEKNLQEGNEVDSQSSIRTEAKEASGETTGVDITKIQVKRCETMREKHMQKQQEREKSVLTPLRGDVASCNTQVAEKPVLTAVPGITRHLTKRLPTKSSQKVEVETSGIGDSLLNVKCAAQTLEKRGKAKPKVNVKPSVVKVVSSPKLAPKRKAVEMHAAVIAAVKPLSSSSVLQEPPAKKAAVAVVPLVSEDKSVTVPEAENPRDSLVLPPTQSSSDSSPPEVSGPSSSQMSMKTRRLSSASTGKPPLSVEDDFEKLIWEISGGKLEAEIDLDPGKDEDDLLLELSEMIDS
UniProt Q96H79: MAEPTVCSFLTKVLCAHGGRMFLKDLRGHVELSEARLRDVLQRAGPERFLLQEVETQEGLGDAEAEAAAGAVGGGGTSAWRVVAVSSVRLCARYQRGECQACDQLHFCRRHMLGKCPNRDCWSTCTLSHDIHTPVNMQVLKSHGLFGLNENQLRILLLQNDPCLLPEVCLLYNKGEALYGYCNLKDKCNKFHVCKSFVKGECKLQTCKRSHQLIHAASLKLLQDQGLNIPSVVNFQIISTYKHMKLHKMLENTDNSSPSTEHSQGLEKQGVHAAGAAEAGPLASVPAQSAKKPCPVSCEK
UniProt Q5HYM0: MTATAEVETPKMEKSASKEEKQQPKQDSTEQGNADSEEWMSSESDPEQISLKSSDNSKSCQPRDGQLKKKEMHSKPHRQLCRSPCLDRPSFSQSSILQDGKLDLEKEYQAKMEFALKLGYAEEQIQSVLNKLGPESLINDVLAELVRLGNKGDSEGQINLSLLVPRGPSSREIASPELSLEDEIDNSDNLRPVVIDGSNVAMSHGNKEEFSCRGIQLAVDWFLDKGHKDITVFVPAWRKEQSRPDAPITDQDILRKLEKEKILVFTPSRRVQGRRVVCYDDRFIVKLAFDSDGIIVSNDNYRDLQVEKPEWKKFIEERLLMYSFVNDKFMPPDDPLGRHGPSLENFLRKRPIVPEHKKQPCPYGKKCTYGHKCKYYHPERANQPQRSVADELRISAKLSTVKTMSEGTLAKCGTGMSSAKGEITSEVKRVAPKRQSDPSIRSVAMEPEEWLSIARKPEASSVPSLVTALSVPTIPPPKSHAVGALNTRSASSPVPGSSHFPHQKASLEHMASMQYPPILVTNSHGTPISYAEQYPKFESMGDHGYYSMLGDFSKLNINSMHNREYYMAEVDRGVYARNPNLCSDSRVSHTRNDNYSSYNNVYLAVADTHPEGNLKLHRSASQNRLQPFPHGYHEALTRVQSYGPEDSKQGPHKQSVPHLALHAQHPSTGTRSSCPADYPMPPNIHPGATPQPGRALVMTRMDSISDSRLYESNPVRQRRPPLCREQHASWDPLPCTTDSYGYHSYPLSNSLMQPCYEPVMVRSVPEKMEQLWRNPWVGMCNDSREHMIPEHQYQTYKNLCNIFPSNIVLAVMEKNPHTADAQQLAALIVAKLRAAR
UniProt A8MPS7: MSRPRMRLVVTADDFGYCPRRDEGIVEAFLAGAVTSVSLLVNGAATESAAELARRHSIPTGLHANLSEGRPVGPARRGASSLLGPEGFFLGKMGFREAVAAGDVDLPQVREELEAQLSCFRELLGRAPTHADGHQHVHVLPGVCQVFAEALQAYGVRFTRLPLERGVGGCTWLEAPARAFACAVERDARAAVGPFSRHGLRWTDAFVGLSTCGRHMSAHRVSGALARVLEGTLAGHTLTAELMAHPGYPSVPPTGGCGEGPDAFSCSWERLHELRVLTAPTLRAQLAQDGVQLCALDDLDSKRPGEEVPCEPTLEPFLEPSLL
UniProt Q9UIA9: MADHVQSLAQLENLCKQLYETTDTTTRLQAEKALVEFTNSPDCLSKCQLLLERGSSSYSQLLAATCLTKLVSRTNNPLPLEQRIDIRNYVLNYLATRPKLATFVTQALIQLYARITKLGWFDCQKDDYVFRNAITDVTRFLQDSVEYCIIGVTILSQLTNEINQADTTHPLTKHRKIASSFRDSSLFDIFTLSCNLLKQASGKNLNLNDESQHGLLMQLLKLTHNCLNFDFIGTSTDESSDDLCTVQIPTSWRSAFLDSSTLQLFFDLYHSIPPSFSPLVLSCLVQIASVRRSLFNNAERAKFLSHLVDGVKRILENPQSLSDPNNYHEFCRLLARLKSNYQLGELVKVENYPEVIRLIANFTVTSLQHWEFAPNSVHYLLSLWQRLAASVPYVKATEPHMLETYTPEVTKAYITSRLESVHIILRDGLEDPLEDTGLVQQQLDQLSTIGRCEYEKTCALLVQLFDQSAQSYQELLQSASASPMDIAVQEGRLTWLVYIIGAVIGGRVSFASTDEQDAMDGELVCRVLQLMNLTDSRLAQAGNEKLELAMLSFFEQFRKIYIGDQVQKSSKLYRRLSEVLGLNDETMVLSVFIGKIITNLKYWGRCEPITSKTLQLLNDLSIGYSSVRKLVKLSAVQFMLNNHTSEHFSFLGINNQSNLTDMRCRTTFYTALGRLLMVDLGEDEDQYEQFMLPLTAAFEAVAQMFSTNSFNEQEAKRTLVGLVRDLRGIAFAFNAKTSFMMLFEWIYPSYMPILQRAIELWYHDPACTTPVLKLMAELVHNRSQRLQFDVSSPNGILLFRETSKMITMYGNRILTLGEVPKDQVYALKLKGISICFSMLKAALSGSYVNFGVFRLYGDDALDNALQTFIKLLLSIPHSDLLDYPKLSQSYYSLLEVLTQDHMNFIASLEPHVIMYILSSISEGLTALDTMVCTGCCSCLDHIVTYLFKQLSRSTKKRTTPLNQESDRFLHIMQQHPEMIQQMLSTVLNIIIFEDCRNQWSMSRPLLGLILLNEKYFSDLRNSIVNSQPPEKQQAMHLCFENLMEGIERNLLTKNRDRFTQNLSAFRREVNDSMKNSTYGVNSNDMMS
UniProt Q8IVQ6: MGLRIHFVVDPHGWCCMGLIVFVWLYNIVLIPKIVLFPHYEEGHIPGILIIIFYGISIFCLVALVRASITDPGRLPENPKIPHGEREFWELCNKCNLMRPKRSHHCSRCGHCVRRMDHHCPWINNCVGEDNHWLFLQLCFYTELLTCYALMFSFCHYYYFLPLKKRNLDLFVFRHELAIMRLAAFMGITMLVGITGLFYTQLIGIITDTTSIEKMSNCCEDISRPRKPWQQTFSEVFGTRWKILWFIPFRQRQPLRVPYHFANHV

Compound: CC1Cc2ccccc2N1C(=O)C1CCCN(C1)C(=O)CCl (mixture of isomers) [TRIM25 ligand 11 (diastereomer mixture)]
Experiment: probe-labelled cysteine peptide fold change vs DMSO (competition) (log2 fold change); higher = less target engagement (more negative = stronger competition)
Settings: THP-1, incubation time: 4 h
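Also: competitive chemoproteomic profiling in live THP-1 cells with an iodoacetamide desthiobiotin (IA-DTB) probe, comparing probe-labelled peptide intensities in compound-treated cells against DMSO-treated controls.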

Row | Target | probe-labelled cysteine peptide fold change (10 µM) | probe-labelled cysteine peptide fold change (50 µM)
1 | ZC3H13_Q5T200_42_LGPSTGSTAETQCR (UniProt Q5T200) | -0.11 | -0.144
2 | XRN2_Q9H0D6_276_DCEGLPR (UniProt Q9H0D6) | -0.0461 | 0.102
3 | ZC3H7B_Q9UGR2_576_DSPSVCSNLAAK (UniProt Q9UGR2) | 0.0652 | 0.0882
4 | YWHAE_P62258_97_LICCDILDVLDK (UniProt P62258) | -0.154 | 0.0438
5 | ZC3H11A_O75152_209_QGECLNFGIK (UniProt O75152) | 0.0341 | -0.0162
6 | ZC3H11A_O75152_588_SVLTPLRGDVASCNTQVAEK (UniProt O75152) | -0.116 | -0.0987
7 | YES1_P07947_42_YRPENTPEPVSTSVSHYGAEPTTVSPCPSSSAK (UniProt P07947) | -0.0245 | -0.239
8 | ZCCHC4_Q9H5U6_19_NGFEAVEAEGSAGCR (UniProt Q9H5U6) | -0.0203 | -0.109
9 | ZC3HAV1L_Q96H79_99+102_GECQACDQLHFCR (UniProt Q96H79) | -0.0504 | -0.0965
10 | ZC3H12B_Q5HYM0_361_KQPCPYGK (UniProt Q5HYM0) | -0.119 | -0.0946
11 | YDJC_A8MPS7_119_EAVAAGDVDLPQVREELEAQLSCFR (UniProt A8MPS7) | 0.457 | 0.114
12 | XPO7_Q9UIA9_525_VSFASTDEQDAMDGELVCR (UniProt Q9UIA9) | 0.233 | 0.397
13 | ZDHHC21_Q8IVQ6_112_CGHCVR (UniProt Q8IVQ6) | -0.0132 | 0.303
14 | XPO7_Q9UIA9_123_LGWFDCQK (UniProt Q9UIA9) | -0.211 | 0.0544
